Results are given in words; binding and its absence hold for the method and conditions named. In cells and extracts the contact can be indirect. Some binding calls cover weakened binding; strength is not graded here.

Common to all, as to experiment: co-IP
Experiment [1] deals with T1, ubiquitin E3 ligase TRIM59 (human (endogenous in 293T)) (UniProt Q8IWR1).
T1 sequence: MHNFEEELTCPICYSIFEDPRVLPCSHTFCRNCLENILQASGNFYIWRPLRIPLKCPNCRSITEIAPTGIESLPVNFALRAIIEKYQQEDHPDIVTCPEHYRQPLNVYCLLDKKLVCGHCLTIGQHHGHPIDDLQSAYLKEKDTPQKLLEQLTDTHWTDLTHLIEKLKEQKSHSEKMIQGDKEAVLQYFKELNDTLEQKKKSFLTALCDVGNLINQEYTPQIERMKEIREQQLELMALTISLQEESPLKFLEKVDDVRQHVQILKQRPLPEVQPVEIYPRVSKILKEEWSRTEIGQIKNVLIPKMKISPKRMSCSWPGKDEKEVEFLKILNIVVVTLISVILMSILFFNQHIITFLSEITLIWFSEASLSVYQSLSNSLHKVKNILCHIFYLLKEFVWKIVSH

In experiment [2] the target is T2, Calnexin (human (endogenous in 293T)) (UniProt P27824).
T2 sequence: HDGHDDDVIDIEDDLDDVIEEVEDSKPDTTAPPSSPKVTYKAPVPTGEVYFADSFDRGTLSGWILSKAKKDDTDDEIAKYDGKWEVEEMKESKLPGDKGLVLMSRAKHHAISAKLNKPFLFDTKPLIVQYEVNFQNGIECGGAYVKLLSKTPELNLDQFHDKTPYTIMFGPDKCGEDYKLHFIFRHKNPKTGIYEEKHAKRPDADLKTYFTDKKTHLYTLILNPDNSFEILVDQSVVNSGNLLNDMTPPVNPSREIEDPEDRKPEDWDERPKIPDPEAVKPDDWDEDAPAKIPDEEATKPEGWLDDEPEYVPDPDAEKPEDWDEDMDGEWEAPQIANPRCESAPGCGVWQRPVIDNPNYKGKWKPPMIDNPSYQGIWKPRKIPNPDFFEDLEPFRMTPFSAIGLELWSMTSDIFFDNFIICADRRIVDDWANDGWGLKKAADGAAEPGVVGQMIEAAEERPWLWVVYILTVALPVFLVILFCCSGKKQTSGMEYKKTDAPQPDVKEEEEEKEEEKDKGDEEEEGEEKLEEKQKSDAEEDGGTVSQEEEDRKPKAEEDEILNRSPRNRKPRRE

In experiment [3] the target is T3, VPS39 (human (endogenous in 293T)) (UniProt Q96JC1).
T3 sequence: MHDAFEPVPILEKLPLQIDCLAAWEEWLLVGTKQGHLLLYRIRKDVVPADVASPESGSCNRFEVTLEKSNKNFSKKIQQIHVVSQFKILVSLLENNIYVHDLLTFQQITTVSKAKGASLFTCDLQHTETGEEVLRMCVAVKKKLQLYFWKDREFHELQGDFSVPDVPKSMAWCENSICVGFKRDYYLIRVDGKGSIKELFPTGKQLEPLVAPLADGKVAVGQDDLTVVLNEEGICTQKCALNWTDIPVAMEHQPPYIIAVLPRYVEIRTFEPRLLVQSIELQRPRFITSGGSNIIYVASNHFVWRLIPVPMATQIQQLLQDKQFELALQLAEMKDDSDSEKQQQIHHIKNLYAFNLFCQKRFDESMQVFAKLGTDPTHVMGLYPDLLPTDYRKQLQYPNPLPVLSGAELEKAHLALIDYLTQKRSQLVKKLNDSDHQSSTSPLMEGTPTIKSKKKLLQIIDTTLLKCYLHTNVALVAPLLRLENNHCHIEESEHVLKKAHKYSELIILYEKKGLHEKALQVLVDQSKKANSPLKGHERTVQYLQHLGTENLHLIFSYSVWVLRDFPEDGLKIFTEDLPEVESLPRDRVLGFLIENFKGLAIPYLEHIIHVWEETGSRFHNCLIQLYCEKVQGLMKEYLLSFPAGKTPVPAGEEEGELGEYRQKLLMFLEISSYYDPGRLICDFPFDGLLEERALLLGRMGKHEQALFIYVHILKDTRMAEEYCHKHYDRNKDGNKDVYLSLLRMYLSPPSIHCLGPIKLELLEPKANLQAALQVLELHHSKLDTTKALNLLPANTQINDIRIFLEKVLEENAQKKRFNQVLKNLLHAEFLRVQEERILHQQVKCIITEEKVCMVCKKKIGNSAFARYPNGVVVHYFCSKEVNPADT

Experiment [4] addresses SARS-CoV-2 ORF3a dDM6:∆aa171-173 mutant, HA-tagged (SARS-CoV-2) (UniProt P0DTC3).

For the molecule “SARS-CoV-2 ORF3a dG188 mutant, HA-tagged (from UniProt P0DTC3 1-275)”, the binding entry in experiment [1] and in experiment [2] was “binds” throughout.
Regarding “SARS-CoV-2 ORF3a dDM6:∆aa171-173 mutant, HA-tagged (from UniProt P0DTC3 1-275)”, the binding result in experiment [3] is on record as “no binding”.

B1: VPS39 (protein, UniProt Q96JC1 1-886)
chain: T3 sequence
Regarding B1, in experiment [4], the binding entry is “no binding”.
